Data from PubChem BioAssay AID624291 (National Center for Advancing Translational Sciences (NCATS), 2012).
Out of some 350,000 compounds screened, about 220 (0.063%) were called active. The shares of active, inactive and inconclusive entries below differ from those in the screen. The call rests on the fitted dose curve; in most records, active means well fitted activation curve with a large enough effect; inconclusive means small, poorly fitted or top-dose-only effect; inactive means no such curve, though single readings can be large or run the other way. A potency beside an inconclusive call is a rough fit, not a confirmed value.

Experiment: qHTS for Activators of Integrin-Mediated Alleviation for Muscular Dystrophy; further: nearly all actives have a fitted effect of over 60% in size
Settings: alpha7betagal myoblasts, beta-gal FDG fluorescence, 48 h; series mostly up to 38.3 µM
In short: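 alpha7betagal+/- myoblasts (passage 13, 250/well) treated 48 h at 37C with compounds at 1:260 dilution of DMSO stock. Lysed, then beta-galactosidase activity read as FDG fluorescence (ex 480/em 540) after 30 min, with pre-read for autofluorescence.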
Potency means the concentration at half of the fitted maximal effect.

Row | Compound | Potency
1 | COc1cc(C=Nc2cccc(C)c2)c(O)c([N+](=O)[O-])c1 | inconclusive: 10 µM [activator, partial curve, poor fit]
2 | COc1ccc(S(=O)(=O)Nc2c(C)nn(C)c2C)cc1Br | inconclusive: 28.2 µM [activator, single point]
3 | O=C(Cc1ccccc1)NN1C(=O)c2ccccc2C1=O | inconclusive: 5.01 µM [activator, single point]
4 | O=C(CCCCl)Nc1nc(-c2ccc3c(c2)OCCO3)cs1 | inactive
5 | CCn1cc(C(=O)Nc2ncccc2O)c(=O)c2cc(F)c(N3CCN(C(=O)c4ccco4)CC3)cc21 | inconclusive: 10 µM [activator, single point]
6 | COCC(C)n1c(SCC(=O)Nc2oc(C)c3c(C)n[nH]c(=O)c23)nc2ccccc2c1=O (configuration not stated) | inconclusive: 1 µM [activator, partial curve, poor fit]
7 | COc1ccc(NC(=O)c2cc3ccccc3[nH]2)cc1 | inconclusive: 14.1 µM [activator, partial curve, poor fit]
8 | N/C(=N\OC(=O)c1ccc2c(c1)OCO2)c1ccncc1 | inconclusive: 28.2 µM [activator, single point]
9 | CCOC(=O)c1ccccc1NC(=O)c1cn(-c2ccc(OC)cc2)c(=O)c2ccccc12 | inconclusive: 10 µM [activator, partial curve, poor fit]
10 | O=C(NC1CCCCC1)C(c1ccc(F)cc1)N(Cc1ccccc1)C(=O)CN1C(=O)c2ccccc2S1(=O)=O (configuration not stated) | inconclusive: 10 µM [activator, partial curve, poor fit]
11 | OCC1OC(n2cnc3c(SCc4ccccc4)ncnc32)C(O)C1O (configuration not stated) | inactive
12 | Cc1cc(=O)oc2c3c(cc(OCC(=O)NCc4ccncc4)c12)OC(C)(C)CC3 | inconclusive: 3.16 µM [activator, single point]
13 | Cc1cccc(C(=O)NNC(=O)CCn2nnc3ccccc32)c1 | inconclusive: 28.2 µM [activator, single point]
14 | NS(=O)(=O)c1ccc(CNC(=O)c2cc(-c3cccnc3)nc3ccc(Br)cc23)cc1 | inconclusive: 5.01 µM [activator, single point]
15 | Cc1cc(Cl)ccc1OC(C)c1nnc(N)s1 (configuration not stated) | inconclusive: 5.01 µM [activator, single point]
16 | Cc1cc(C)c(S(=O)(=O)ON2C(=O)c3ccccc3C2=O)cc1C | inactive
17 | CCN1C(=O)CSc2ccc(C(=O)NCc3ccccc3)cc21 | inconclusive: 0.355 µM [activator, full curve, poor fit]

Exported comma-delimited: two of the compounds above
Row,Compound,Potency
8,N/C(=N\OC(=O)c1ccc2c(c1)OCO2)c1ccncc1,"inconclusive: 28.2 µM [activator, single point]"
14,NS(=O)(=O)c1ccc(CNC(=O)c2cc(-c3cccnc3)nc3ccc(Br)cc23)cc1,"inconclusive: 5.01 µM [activator, single point]"
